The text below walks through data of article PMC8113721.

The chains behind the UniProt entries cited, without tags or fusion partners.
UniProt P33897: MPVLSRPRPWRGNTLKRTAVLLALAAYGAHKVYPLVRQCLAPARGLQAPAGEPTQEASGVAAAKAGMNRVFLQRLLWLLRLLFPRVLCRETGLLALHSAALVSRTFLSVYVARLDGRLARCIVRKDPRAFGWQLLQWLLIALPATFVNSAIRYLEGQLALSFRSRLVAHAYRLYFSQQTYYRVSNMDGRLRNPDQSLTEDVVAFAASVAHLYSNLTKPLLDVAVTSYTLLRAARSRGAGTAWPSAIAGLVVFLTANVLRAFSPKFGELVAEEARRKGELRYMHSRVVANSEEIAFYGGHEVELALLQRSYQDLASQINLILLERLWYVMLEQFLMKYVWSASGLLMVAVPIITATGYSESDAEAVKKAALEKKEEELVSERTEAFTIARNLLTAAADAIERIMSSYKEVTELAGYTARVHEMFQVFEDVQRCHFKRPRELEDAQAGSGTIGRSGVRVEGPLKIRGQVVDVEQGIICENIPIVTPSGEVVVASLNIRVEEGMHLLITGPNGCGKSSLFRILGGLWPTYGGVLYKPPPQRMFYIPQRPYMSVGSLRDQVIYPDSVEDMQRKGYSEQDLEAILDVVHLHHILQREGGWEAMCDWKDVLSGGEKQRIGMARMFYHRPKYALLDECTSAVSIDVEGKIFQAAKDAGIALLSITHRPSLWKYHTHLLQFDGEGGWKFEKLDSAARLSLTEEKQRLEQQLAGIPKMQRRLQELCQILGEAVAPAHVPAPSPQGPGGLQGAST

No constants are given. Whether binding was seen depends on the method and setting. Where a sequence is shown, tags or fusion partners need not be part of it.

The target in this assay is His-ABCD1 (UniProt P33897). The assay is described as follows: pull-down; eluates (15 μg each) mixed, rotated at 4 °C for 15 min, incubated with His-tag affinity resin overnight at 4 °C; wash 50 mM Tris–HCl pH 7.5, 300 mM NaCl, 0.1% β-DDM; immunoblot with anti-His or anti-GST; both purified. (In general: Immunoblotting shows a protein as a band on a membrane.)

B1: glutathione-S-transferase (GST)–tagged LMBD1 (protein, UniProt Q9NUN5 1-540)
chain: MATSGAASAELVIGWCIFGLLLLAILAFCWIYVRKYQSRRESEVVSTITAIFSLAIALITSALLPVDIFLVSYMKNQNGTFKDWANANVSRQIEDTVLYGYYTLYSVILFCVFFWIPFVYFYYEEKDDDDTSKCTQIKTALKYTLGFVVICALLLLVGAFVPLNVPNNKNSTEWEKVKSLFEELGSSHGLAALSFSISSLTLIGMLAAITYTAYGMSALPLNLIKGTRSAAYERLENTEDIEEVEQHIQTIKSKSKDGRPLPARDKRALKQFEERLRTLKKRERHLEFIENSWWTKFCGALRPLKIVWGIFFILVALLFVISLFLSNLDKALHSAGIDSGFIIFGANLSNPLNMLLPLLQTVFPLDYILITIIIMYFIFTSMAGIRNIGIWFFWIRLYKIRRGRTRPQALLFLCMILLLIVLHTSYMIYSLAPQYVMYGSQNYLIETNITSDNHKGNSTLSVPKRCDADAPEDQCTVTRTYLFLHKFWFFSAAYYFGNWAFLGVFLIGLIVSCCKGKKSVIEGVDEDSDISDDEPSVYSA
For B1, the binding entry is listed as “no binding”.
